Results taken from patent US12728120B2, “Prevention or treatment of brain disease and adverse effects of cholinesterase inhibitors” (DR. NOAH BIOTECH INC., priority 2021, dated 2026).
Counter-ions that a name gives are not always drawn.

Assays:
ERK pathway = assay: pERK expression in brain (western blot), MCAO-reperfusion model; format: in vivo, Sprague-Dawley rats
Protocol: (§1) At 21 days after 45-minutes-MCAO-reperfusion modeling, brains were collected to perform a western blot assay. Brains were homogenized in lysate buffer with protease inhibitor cocktail on ice. Each sample was centrifuged at 13,000 rpm and 4° C. for 30 minutes and the supernatant was used for further experiments. Protein concentration was measured using DC (Bio-rad, #5000112) protein assay. Samples were loaded using the SDS-PAGE system (Bio-rad, #1658004 and #1645052) and transferred onto nitrocellulose membranes (Bio-rad, #17001917 and #1704272). The membranes were blocked for 1 hour at room temperature with Tris-buffered saline-Tween20 (TBS-T) containing 5% skim milk and then incubated with pAKT antibody (Cell signaling, #4060), AKT primary antibody (Santacruz, SC-81434), EPO primary antibody (SCBT, SC-5290), ERK (CST, #9102), pERK (CST, #9101) and GAPDH (Bioworld, #MBOO1H) in 5% skim milk overnight at 4° C. Next day, the membranes were washed 3 times in TBS-T for 5 minutes, incubated with horseradish peroxidase-conjugated (HRP-conjugated) secondary antibody or fluorescence conjugated secondary antibody for 1-2 hours, and then washed 3 times in TBS-T for 5 minutes again. After final wash, the membranes were developed for chemiluminescence or fluorescence system. The signals of chemiluminescence or fluorescence were acquired and quantified by using ECL solution (Bio-rad, #1705062), iBright 1500 (Invitrogen, #CL1500), and Odyssey CLx (LI-COR, #CLX-2383) imaging system.

IL-6 = IL-6 ELISA in LPS-treated BV2 microglial cells; format: cell-based, mouse; settings: BV2, 1 μg/ml LPS, 18 hours; FIG. 4
Protocol: Briefly, BV2 microglial cells were plated in 96-well plates at 2×10^5 cells/well in DMEM high glucose medium (Welgene, LM001-05) supplemented with 10% fetal bovine serum (FBS; YOUNG IN, US-FBS-500) and 1% penicillin-streptomycin (P-S; Gibco, 15070063).

[1] = system: ReN VM-immortalized cells, human neural progenitor cell line; assay: HB9 motor neuron marker expression in neural progenitor cells (differentiation); format: cell-based; settings: alone or combined, 3 days
Protocol: ReN VM-immortalized cells, human neural progenitor cell line, were used (EMD Millipore, SCC008). These neural progenitor cells can differentiate into motor neurons and glial cells. The degree of differentiation of neural progenitor cells into motor neurons was determined by analysing the level of HB9, a specific motor neuron marker. ReN VM cells were cultured on laminin (Corning, 354232)-coated 75T Flask in the growth medium, which is DMEM/F12 (Welgene, #LM002-08) supplemented with 20 ng/ml basic fibroblast growth factor (bFGF; Gibco, 15750-060), 20 ng/ml epidermal growth factor (EGF; Sigma, E9644), serum-free B27 (Gibco, 17504-044), 10 KU heparin (Sigma, H3393), and 1% gentamicin (Gibco, 17504-044). Cells were plated in 96-well plates at 7000 cells/well in the growth media in a 37° C./5% CO2 incubator for 3 days. […] Immunostaining was performed against HB9, a specific motor neuronal marker, to assess the population of motor neurons. Briefly, drug-treated ReN VM cells were fixed in 10% formalin solution for 20 minutes and permeabilized in 0.1% TritonX-100. […] Fluorescence intensity levels were measured using an Odyssey® DLx Infrared Imaging System (LI-COR, CLS-2383). All data were analyzed using the GraphPad Prism 9 software. Statistical significance was assessed using a one-way ANOVA or two-way ANOVA followed by Dunnett's post-hoc analysis unless otherwise noted. […]

PI3K-AKT pathway = assay: pAKT expression in brain (western blot), MCAO-reperfusion model; format: in vivo, Sprague-Dawley rats
Protocol: as §1

EPO = EPO expression in brain (western blot), MCAO-reperfusion model; format: in vivo, Sprague-Dawley rats; settings: 21 days after MCAO
Protocol: At 21 days after 45-minutes-MCAO (middle cerebral artery occlusion)-reperfusion modeling, brains were collected to perform the western blot assay. Brains were homogenized in lysate buffer with protease inhibitor cocktail on ice. Each sample was then centrifuged at 13,000 rpm and 4° C. for 30 minutes and the supernatant was used for further experiments. Protein concentration was measured using DC (Bio-rad, #5000112) protein assay. Samples were loaded using the SDS-PAGE system (Bio-rad, #1658004 and #1645052) and transferred onto nitrocellulose membranes (Bio-rad, #17001917 and #1704272). […] Next day, the membranes were washed 3 times in TBS-T for 5 minutes, incubated with horseradish peroxidase-conjugated (HRP-conjugated) secondary antibody or fluorescence conjugated secondary antibody for 1-2 hours, and then washed 3 times in TBS-T for 5 minutes again. After final wash, the membranes were developed for chemiluminescence or fluorescence system. The signals of chemiluminescence or fluorescence were acquired and quantified by using ECL solution (Bio-rad, #1705062), iBright 1500 (Invitrogen, #CL1500), and Odyssey CLx (LI-COR, #CLX-2383) imaging system.

[2] = 1 mpk donepezil HCl or 120 mpk NAC used alone, FIG. 17
[3] = brain, 21 days after MCAO, 1 mpk donepezil HCl, 120 mpk NAC, alone or combined

## COc1cc2c(cc1OC)C(=O)C(CC1CCN(Cc3ccccc3)CC1)C2 (centres unmarked) [Donepezil-HCl, donepezil]
ERK pathway; [2]
  activation of the ERK pathway: did not activate
ERK pathway; [3]
  pERK expression normalized to VEH (100%): 151.96%
ERK pathway; brain, 21 days after MCAO, 1 mpk donepezil HCl, 120 mpk NAC, alone or combined, FIG. 17B
  pERK expression, mean value: 79.67
IL-6
  IL-6, mean value relative to LPS (100%): 65.12%
[1]; donepezil 0.1 μM, NAC 12 μM, FIG. 9A
  HB9 expression level, mean value relative to CTL (100%): 119.81%
[1]; donepezil 1 μM, NAC 120 μM, FIG. 9B
  HB9 expression level, mean value relative to CTL (100%): 119.25%
PI3K-AKT pathway; [2]
  activation of the PI3K-AKT pathway: did not activate
PI3K-AKT pathway; [3]
  pAKT expression normalized to VEH (100%): 388.48%
PI3K-AKT pathway; brain, 21 days after MCAO, 1 mpk donepezil HCl, 120 mpk NAC, alone or combined, FIG. 17A
  pAKT expression, mean value: 307.50
EPO
  EPO expression normalized to VEH (100%): 114.38%
EPO; FIG. 18
  EPO expression, mean value: 130.04
